This note sets out measurements from paper PMC4018993, “Use of “one-pot, mix-and-read” peptide-MHC class I tetramers and predictive algorithms to improve detection of cytotoxic T lymphocyte responses in cattle” (Veterinary Research, 2014).

The amount applied is not stated for every result.

This data set relates to PBMC of BoLA-A18 cattle. The data set can be described thus: ex vivo tetramer staining of PBMC from ITM-vaccinated cattle. The protocol:
Three cattle of BoLA-A18 haplotype (typed with PCR primers [forward] 5’-[…]-3’ and [reverse] 5’-[…]-3’ specific for BoLA-6*01301) were vaccinated by ITM [24] using the T. parva strain Muguga 3308. Whole blood was collected from these cattle at the day of vaccination (day 0) and every two days till appearance of tetramer positive cells. PBMC were purified on Ficoll paque density gradients at 2500 rpm for 25 min and 5 × 10^5 PBMC were stained with the Tp1_214-224-BoLA-6*01301 tetramer as described in the flow cytometry procedure. This animal experiment was approved by the ILRI IACUC committee [# 2012.10].

For the sequence VGYPKVKEEML [Tp1_214-224], the “day of detection of tetramer positive CTL in peripheral blood” value (post-immunization with live parasite vaccine, Tp1_214-224-BoLA-6*01301 tetramer) fell in the range of 15 to 17 days. For the same sequence, under “post-vaccination, ITM, BoLA-A18 cattle, data not shown”, the “earliest day of CTL detection” value worked out at 13 days. In addition, the “day of peak CTL response” value (post-vaccination, ITM, Figure 5) is approximately 15 days.
